According to publication PMC5543055:
These are yes or no findings as the source states them, for the method shown. Binding seen in cells or lysates may run through a third protein. Some binding calls cover weakened binding; strength is not graded here.

Chains of the proteins cited; added tags and fusions are not shown. Lines headed by an entry give the natural chain unless they say otherwise; changes in a name come on top.
UniProt P49327: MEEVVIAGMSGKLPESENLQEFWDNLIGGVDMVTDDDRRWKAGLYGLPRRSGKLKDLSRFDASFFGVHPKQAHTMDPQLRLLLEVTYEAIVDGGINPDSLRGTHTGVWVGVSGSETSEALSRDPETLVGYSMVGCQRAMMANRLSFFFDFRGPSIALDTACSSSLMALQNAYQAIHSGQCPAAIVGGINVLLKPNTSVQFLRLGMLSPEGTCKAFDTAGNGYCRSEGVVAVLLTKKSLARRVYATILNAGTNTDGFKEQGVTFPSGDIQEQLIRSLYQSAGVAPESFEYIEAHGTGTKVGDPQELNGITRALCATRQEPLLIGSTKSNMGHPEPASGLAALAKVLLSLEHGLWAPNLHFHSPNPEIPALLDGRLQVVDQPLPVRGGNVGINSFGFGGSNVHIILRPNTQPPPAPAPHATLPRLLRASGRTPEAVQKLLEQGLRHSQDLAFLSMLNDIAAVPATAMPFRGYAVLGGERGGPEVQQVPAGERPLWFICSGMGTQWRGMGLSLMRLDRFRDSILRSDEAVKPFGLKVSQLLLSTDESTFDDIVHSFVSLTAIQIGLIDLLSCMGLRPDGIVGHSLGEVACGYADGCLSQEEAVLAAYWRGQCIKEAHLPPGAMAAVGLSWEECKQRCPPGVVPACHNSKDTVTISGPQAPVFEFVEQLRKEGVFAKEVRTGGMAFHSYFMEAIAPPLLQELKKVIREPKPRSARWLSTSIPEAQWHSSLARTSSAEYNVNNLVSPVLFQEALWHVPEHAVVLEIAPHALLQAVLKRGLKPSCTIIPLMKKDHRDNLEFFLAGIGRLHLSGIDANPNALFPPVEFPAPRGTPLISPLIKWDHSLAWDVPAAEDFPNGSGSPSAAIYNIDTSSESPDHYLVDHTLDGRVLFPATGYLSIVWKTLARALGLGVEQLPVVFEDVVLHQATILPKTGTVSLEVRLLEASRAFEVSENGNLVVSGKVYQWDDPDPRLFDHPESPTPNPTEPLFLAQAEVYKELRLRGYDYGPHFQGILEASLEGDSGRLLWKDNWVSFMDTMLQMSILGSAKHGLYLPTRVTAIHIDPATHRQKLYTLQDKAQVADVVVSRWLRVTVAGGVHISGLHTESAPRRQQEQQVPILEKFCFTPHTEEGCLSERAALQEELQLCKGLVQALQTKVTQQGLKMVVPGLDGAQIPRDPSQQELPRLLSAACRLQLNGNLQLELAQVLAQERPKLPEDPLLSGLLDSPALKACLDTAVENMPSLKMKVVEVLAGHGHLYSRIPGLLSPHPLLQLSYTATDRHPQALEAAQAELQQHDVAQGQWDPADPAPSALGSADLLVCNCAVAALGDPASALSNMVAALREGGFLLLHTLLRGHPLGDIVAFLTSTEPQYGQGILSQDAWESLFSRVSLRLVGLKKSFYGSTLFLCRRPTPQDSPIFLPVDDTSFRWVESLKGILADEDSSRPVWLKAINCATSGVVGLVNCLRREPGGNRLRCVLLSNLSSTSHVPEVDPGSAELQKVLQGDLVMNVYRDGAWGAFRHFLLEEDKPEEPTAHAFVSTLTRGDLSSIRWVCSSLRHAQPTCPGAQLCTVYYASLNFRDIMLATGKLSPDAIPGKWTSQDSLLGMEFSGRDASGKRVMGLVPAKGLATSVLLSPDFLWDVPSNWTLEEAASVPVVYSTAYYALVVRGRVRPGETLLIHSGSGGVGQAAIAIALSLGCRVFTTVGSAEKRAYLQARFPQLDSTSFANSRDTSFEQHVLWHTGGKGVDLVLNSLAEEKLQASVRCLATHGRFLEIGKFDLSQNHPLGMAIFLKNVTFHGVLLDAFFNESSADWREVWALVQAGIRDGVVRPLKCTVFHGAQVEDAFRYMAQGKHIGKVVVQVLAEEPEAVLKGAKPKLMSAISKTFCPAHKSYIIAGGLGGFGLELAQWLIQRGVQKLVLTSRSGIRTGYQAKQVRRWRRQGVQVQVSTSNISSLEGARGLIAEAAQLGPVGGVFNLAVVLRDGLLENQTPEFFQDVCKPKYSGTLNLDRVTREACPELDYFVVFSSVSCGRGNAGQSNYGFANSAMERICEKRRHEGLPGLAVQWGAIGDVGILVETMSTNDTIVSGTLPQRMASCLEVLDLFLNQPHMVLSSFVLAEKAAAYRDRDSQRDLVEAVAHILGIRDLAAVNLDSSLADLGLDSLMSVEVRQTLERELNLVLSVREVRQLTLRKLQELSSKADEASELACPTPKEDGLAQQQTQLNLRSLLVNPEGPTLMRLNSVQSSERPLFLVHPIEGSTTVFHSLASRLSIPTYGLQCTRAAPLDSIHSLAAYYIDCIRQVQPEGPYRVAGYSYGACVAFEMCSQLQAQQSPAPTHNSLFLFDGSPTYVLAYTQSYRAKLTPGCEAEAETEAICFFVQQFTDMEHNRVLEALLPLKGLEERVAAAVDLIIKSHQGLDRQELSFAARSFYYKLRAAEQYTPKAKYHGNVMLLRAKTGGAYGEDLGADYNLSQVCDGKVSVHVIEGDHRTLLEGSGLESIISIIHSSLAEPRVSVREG
UniProt P40337: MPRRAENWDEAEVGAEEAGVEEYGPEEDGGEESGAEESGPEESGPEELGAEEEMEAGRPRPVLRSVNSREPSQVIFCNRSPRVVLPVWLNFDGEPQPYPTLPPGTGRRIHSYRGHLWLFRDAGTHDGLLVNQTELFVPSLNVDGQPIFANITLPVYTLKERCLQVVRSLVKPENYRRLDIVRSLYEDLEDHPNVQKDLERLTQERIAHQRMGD
UniProt P27708: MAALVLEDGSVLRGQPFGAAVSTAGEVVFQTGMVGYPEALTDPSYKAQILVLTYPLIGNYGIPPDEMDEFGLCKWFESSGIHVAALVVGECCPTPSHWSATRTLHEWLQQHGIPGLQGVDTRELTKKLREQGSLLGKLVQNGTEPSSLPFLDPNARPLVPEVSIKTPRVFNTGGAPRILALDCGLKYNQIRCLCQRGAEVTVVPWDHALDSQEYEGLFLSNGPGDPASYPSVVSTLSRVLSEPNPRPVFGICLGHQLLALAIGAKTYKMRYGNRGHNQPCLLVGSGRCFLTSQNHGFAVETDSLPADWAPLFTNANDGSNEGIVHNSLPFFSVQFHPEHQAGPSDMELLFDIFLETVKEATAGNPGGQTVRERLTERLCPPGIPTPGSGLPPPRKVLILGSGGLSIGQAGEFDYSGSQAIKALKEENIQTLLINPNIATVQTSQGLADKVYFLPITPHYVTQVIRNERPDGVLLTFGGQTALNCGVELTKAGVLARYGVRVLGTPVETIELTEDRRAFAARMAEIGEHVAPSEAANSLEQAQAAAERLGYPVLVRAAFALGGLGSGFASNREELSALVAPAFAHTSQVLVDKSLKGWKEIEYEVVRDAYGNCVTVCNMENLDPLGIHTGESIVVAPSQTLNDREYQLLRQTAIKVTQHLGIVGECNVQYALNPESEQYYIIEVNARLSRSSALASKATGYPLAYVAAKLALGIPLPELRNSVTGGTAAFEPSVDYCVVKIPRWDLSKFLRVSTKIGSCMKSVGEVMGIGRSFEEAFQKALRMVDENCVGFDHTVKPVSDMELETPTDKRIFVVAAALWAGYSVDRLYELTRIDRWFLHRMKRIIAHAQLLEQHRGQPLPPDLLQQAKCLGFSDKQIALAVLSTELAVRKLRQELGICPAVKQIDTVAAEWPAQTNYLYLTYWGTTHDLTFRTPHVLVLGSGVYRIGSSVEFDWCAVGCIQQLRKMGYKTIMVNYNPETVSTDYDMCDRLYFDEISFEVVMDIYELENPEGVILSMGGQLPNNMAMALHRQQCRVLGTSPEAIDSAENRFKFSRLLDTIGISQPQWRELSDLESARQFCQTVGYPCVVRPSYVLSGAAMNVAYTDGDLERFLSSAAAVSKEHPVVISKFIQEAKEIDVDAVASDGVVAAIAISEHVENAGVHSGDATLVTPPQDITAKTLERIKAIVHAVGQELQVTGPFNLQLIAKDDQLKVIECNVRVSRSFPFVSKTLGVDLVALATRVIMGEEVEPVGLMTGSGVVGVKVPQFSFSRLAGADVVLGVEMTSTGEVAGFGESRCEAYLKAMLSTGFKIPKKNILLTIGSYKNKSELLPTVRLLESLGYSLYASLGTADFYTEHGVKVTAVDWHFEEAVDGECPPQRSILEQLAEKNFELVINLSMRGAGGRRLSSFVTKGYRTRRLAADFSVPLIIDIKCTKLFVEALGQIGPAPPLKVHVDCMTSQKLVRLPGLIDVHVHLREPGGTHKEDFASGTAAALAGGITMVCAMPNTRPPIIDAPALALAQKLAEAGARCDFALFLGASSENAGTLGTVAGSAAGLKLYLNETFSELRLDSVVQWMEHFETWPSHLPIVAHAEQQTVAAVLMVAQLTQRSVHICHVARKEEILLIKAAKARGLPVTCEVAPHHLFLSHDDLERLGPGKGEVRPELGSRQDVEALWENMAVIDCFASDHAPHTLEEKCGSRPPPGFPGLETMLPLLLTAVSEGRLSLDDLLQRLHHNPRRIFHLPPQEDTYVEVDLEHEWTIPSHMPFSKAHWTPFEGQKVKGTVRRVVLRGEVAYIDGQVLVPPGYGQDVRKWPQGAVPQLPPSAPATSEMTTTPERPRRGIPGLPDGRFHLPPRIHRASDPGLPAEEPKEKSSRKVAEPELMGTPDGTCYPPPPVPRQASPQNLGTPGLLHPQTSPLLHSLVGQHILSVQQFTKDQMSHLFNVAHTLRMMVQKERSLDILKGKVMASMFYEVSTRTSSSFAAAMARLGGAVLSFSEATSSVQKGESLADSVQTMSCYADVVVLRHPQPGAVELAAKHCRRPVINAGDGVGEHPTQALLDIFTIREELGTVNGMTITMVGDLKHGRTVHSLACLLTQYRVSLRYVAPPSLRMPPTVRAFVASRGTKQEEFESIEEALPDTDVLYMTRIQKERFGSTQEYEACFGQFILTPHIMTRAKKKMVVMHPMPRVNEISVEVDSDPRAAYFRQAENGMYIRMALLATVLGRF

Columns and labels:
[1] = target: Flag-tagged FASN stably expressed in HCT116 (human) (UniProt P49327); experiment: co-IP; whole cell extracts of HCT116 stably expressing Flag-tagged proteins; anti-Flag M2 affinity agarose overnight, washes up to 300 mM NaCl, elution with Flag peptide, western blot (and silver staining)
[2] = target: Flag-tagged wild-type von Hippel-Lindau tumour suppressor protein (pVHL), stably expressed in HCT116 (human) (UniProt P40337); experiment: as above
[3] = target: Flag-tagged pVHL-H115Q, stably expressed in HCT116 (human) (UniProt P40337); experiment: as above
[4] = target: fatty acid synthase (FASN), endogenous in HCT116 (human (endogenous in HCT116)) (UniProt P49327); experiment: co-IP; endogenous proteins from HCT116 whole cell extracts (M-PER buffer, 10 µM MG132); antibody-conjugated Protein-G Sepharose overnight, washes up to 300 mM NaCl, elution with 1% SDS, western blot

binding [1]: binds | binding [2]: binds | binding [3]: binds | binding [4]: binds
Substance: carbamoyl-phosphate synthetase 2, aspartate transcarbamylase and dihydroorotase (CAD), endogenous in HCT116 (from UniProt P27708 1-2225) (enzyme)
